# Test system: atherosclerotic plaques, VCAM-1
# Assay: Ex vivo uptake of 18F-4V in excised aortas
# Set-up: species or system mouse
# Settings: apoE-/- mice, atorvastatin enriched in diet, 0.01% wt/wt; p<0.05
compound,measurement,value
"CC(C)c1c(C(=O)Nc2ccccc2)c(-c2ccccc2)c(-c2ccc(F)cc2)n1CC[C@@H](O)C[C@@H](O)CC(=O)O [atorvastatin, reference compound]",effect of treatment on uptake of 18F-4V in excised aortas,significantly reduced uptake

# — publication PMC2773129 (JACC. Cardiovascular imaging, 2009)
